Some of the results follow. The calls rarely recur for the same compound in another form.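 In K562 cells expressing nanoluciferase-fused kinases, luminescence was recorded at 4 h intervals between 2 and 18 h, normalized as percent of control with DMSO at 100% and a positive control at 0%. A significant (2 sigma) signal drop marks a time point as decreased. The authors' rule for a hit is not shown and takes in more than the number of time points.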
How the values were obtained:
Experiment in all cases: kinase-Nluc reporter destabilization hit call (1 = scored as downregulated) (binary); higher = compound decreases kinase abundance
Conditions in all cases: K562; 2-18 h
BRAF_V600E = system: BRAF_V600E
BTK = BTK (UniProt Q06187)
CAMK2A = CAMK2A (UniProt Q9UQM7)
CAMK2G = CAMK2G (UniProt Q13555)
CDK10 = CDK10 (UniProt Q15131)
CDK2 = CDK2 (UniProt P24941)
CDK3 = CDK3 (UniProt Q00526)
CDK4 = CDK4 (UniProt P11802)
CDK5 = CDK5 (UniProt Q00535)
CDK6 = CDK6 (UniProt Q00534)
CDK7 = CDK7 (UniProt P50613)
CDK9 = CDK9 (UniProt P50750)
CHEK2 = CHEK2 (UniProt O96017)
CSF1R = CSF1R (UniProt P07333)
CSK = CSK (UniProt P41240)
CSNK1A1 = CSNK1A1 (UniProt P48729)
CSNK1D = CSNK1D (UniProt P48730)
DDR1 = DDR1 (UniProt Q08345)
DYRK1B = DYRK1B (UniProt Q9Y463)
DYRK2 = DYRK2 (UniProt Q92630)

Amino acid sequences for entries named in this document (tags omitted). A change or cut given only in a name is not applied to a line headed by its entry.
UniProt Q06187: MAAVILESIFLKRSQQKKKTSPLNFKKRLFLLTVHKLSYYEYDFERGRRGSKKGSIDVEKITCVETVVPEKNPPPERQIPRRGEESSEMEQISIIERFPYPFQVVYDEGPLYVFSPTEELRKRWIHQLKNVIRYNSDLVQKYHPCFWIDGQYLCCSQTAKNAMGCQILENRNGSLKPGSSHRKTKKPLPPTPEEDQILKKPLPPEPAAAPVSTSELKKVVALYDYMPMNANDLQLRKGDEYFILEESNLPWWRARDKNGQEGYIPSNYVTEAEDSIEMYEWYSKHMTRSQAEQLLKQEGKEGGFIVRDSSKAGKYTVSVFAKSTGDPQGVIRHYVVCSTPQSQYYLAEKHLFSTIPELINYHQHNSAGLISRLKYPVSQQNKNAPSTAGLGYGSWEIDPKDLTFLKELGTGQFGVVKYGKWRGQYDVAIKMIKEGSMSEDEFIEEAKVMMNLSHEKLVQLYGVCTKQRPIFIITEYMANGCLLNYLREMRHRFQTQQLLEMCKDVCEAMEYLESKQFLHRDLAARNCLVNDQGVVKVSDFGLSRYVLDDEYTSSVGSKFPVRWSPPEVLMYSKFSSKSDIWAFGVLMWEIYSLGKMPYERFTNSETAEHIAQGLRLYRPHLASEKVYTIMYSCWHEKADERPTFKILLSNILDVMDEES
UniProt Q9UQM7, whole entry: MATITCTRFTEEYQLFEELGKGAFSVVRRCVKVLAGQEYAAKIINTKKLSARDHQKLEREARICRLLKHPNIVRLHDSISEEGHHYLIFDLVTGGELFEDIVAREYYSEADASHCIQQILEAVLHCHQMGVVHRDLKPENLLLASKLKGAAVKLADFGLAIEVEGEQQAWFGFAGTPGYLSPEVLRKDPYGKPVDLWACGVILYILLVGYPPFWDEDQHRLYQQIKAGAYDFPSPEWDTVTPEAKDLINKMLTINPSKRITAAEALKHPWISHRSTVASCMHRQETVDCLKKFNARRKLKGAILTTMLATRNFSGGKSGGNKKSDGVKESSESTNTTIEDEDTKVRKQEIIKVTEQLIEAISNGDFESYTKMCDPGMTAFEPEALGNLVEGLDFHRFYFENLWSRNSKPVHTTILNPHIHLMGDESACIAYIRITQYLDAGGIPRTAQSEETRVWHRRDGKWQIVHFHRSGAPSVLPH
UniProt Q15131: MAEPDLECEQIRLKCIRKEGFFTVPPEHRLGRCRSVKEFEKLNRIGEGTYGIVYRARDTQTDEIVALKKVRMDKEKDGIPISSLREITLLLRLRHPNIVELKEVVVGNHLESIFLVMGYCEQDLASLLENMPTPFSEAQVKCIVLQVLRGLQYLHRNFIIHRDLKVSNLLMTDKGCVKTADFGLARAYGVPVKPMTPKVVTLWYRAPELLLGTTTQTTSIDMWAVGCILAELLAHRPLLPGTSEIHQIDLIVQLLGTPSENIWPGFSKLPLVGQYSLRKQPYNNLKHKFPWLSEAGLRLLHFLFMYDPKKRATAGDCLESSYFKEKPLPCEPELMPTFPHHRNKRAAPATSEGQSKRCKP
UniProt Q00526: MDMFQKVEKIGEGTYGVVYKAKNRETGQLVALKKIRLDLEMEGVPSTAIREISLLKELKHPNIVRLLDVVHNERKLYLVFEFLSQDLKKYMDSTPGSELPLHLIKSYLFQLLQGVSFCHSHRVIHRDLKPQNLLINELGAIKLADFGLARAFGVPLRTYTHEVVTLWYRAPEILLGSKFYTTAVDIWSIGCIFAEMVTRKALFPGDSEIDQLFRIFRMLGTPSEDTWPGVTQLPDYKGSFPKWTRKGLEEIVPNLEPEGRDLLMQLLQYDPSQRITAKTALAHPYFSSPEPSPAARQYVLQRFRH
UniProt P11802: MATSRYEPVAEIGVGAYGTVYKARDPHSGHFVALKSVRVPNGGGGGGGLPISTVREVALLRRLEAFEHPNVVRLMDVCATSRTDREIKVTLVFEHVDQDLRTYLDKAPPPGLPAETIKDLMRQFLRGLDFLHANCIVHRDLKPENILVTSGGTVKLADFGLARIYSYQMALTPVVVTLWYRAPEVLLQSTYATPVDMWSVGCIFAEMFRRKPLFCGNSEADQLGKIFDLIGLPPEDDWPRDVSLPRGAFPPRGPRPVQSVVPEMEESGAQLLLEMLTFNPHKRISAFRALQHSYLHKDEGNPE
UniProt Q00534, whole entry: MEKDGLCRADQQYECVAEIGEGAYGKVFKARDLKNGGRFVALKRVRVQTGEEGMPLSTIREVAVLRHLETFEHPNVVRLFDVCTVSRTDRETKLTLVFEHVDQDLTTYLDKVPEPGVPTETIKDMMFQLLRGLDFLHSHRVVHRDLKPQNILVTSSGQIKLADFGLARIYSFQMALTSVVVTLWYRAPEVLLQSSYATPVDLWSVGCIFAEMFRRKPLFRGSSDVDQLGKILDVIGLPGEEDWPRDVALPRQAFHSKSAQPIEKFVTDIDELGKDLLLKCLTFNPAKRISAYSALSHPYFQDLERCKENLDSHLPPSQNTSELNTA
UniProt P50613: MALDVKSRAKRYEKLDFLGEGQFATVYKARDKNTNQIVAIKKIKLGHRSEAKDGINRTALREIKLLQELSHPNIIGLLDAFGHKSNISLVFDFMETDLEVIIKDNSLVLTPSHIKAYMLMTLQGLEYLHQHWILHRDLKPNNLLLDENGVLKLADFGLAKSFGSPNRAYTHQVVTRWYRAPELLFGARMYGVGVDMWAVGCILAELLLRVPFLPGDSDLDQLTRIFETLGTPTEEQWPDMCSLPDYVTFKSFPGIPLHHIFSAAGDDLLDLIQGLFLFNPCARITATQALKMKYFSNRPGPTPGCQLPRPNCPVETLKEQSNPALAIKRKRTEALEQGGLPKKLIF
UniProt P50750, whole entry: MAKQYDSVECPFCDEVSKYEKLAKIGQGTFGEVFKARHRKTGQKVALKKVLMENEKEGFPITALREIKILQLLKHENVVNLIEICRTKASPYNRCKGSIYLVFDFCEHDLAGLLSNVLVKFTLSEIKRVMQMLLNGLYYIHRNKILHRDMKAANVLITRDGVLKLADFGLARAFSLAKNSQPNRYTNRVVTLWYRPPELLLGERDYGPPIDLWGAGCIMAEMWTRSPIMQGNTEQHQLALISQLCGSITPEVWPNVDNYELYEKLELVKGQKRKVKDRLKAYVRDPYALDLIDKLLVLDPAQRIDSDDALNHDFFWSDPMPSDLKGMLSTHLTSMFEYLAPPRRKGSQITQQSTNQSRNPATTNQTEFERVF
UniProt P07333, whole entry: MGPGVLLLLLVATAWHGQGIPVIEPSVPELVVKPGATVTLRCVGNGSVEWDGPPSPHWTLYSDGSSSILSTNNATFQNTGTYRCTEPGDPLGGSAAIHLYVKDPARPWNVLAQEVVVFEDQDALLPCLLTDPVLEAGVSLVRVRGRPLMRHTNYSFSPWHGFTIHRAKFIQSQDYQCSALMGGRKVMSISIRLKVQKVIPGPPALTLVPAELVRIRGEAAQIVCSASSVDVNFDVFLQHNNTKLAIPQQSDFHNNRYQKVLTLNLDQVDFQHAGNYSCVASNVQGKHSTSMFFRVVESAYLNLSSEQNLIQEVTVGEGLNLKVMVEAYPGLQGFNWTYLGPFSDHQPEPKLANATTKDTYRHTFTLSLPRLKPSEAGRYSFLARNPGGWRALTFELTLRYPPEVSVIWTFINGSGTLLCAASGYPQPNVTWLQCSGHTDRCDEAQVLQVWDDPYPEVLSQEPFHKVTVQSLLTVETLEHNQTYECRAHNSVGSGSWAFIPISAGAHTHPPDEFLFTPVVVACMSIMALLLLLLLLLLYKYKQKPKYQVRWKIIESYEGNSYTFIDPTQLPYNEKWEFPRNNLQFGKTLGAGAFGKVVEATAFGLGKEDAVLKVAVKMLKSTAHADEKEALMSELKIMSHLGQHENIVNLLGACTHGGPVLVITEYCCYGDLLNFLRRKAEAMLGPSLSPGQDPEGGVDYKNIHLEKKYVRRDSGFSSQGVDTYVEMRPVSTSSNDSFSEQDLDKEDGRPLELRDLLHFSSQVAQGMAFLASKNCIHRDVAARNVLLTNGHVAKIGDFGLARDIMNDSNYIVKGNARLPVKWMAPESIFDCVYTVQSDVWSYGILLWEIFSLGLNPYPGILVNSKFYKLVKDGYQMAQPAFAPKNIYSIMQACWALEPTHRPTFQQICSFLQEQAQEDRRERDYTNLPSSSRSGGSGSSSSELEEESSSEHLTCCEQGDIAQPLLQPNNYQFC
UniProt P41240: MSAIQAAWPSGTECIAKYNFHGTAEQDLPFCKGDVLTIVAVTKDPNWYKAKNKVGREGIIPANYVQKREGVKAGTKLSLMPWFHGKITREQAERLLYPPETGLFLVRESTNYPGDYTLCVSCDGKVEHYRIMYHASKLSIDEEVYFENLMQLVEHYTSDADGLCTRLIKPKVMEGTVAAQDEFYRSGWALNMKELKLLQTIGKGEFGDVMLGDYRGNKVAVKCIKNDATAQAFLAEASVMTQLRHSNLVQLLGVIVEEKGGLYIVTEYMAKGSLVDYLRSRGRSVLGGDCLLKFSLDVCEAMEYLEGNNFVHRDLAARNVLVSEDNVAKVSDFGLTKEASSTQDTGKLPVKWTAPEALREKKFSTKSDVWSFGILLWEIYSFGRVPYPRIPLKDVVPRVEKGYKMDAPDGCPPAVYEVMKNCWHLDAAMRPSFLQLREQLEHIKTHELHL
UniProt P48730: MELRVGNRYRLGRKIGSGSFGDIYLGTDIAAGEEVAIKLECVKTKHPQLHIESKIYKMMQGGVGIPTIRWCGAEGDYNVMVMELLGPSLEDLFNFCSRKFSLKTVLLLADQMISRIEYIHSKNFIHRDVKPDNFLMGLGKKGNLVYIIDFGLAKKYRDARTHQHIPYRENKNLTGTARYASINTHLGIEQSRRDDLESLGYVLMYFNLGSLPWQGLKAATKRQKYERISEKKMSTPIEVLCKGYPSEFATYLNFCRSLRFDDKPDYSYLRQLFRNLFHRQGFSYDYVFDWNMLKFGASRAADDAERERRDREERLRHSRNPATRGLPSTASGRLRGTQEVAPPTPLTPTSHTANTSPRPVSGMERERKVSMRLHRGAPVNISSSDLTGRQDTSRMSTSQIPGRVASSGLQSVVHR
UniProt Q08345: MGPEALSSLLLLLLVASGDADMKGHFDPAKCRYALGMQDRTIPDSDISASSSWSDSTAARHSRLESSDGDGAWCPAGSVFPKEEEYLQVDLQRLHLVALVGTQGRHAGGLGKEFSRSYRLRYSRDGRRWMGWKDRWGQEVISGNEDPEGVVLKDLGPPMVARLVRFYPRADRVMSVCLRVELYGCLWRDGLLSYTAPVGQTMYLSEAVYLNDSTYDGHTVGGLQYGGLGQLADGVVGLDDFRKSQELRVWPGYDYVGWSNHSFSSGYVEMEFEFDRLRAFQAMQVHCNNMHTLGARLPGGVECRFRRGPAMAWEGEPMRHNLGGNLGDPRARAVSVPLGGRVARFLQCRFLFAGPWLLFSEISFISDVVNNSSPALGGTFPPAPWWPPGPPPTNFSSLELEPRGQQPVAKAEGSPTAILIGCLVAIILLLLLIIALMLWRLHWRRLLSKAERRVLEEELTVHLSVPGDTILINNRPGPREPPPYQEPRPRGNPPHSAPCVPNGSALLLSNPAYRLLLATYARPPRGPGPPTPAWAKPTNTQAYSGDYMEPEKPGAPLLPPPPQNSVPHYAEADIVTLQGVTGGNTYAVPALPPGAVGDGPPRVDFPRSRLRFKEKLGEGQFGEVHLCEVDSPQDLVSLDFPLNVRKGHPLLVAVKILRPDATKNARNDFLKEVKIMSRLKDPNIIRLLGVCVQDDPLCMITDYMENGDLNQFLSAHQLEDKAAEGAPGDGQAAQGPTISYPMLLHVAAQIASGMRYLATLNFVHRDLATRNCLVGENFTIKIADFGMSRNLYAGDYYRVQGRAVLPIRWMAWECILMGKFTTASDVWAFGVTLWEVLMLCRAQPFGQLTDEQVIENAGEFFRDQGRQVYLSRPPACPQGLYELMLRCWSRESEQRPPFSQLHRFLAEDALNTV
UniProt Q92630: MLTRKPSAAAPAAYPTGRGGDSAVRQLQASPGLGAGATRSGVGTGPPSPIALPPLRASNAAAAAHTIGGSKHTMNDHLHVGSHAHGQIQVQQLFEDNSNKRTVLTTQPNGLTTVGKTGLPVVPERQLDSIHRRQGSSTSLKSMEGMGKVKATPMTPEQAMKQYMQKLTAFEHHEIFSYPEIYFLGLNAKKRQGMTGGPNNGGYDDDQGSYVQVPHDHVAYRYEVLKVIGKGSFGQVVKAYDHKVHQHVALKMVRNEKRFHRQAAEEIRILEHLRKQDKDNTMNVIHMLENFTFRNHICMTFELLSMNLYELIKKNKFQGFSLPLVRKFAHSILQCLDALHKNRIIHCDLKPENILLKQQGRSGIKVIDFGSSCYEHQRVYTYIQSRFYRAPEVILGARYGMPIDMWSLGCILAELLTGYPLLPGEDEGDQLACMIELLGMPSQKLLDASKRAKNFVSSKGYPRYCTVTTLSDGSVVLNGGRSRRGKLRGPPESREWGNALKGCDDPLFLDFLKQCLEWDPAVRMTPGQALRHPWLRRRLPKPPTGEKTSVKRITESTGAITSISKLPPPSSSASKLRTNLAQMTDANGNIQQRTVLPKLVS

Structure (SMILES) | kinase-Nluc reporter destabilization hit call (BRAF_V600E) | kinase-Nluc reporter destabilization hit call (BTK) | kinase-Nluc reporter destabilization hit call (CAMK2A) | kinase-Nluc reporter destabilization hit call (CAMK2G) | kinase-Nluc reporter destabilization hit call (CDK10) | kinase-Nluc reporter destabilization hit call (CDK2) | kinase-Nluc reporter destabilization hit call (CDK3) | kinase-Nluc reporter destabilization hit call (CDK4) | kinase-Nluc reporter destabilization hit call (CDK5) | kinase-Nluc reporter destabilization hit call (CDK6) | kinase-Nluc reporter destabilization hit call (CDK7) | kinase-Nluc reporter destabilization hit call (CDK9) | kinase-Nluc reporter destabilization hit call (CHEK2) | kinase-Nluc reporter destabilization hit call (CSF1R) | kinase-Nluc reporter destabilization hit call (CSK) | kinase-Nluc reporter destabilization hit call (CSNK1A1) | kinase-Nluc reporter destabilization hit call (CSNK1D) | kinase-Nluc reporter destabilization hit call (DDR1) | kinase-Nluc reporter destabilization hit call (DYRK1B) | kinase-Nluc reporter destabilization hit call (DYRK2)
Cn1cc(-c2c[nH]c3ncnc(N4CCOCC4)c23)cc1C#N (10 µM) | inactive: 0 | inactive: 0 | inactive: 0 | inactive: 0 | inactive: 0 | inactive: 0 | inactive: 0 | inactive: 0 | inactive: 0 | inactive: 0 | inactive: 0 | inactive: 0 | inactive: 0 | inactive: 0 | inactive: 0 | inactive: 0 | inactive: 0 | inactive: 0 | inactive: 0 | inactive: 0
Nc1ncnc2c1c(-c1ccc(Oc3ccccc3)cc1)nn2C1CCN(CCOCCOCCOc2ccc3c(c2)CN(C2CCC(=O)NC2=O)C3=O)CC1 (stereo not given) (2.5 µM) | inactive: 0 | inactive: 0 | inactive: 0 | inactive: 0 | inactive: 0 | inactive: 0 | inactive: 0 | inactive: 0 | inactive: 0 | inactive: 0 | inactive: 0 | inactive: 0 | inactive: 0 | inactive: 0 | inactive: 0 | inactive: 0 | inactive: 0 | inactive: 0 | inactive: 0 | inactive: 0
CNc1cc(Nc2cccn(-c3ccccn3)c2=O)nn2c(C(=O)N[C@@H]3C[C@@H]3F)cnc12 (2.5 µM) | inactive: 0 | inactive: 0 | inactive: 0 | inactive: 0 | inactive: 0 | inactive: 0 | inactive: 0 | inactive: 0 | inactive: 0 | inactive: 0 | inactive: 0 | inactive: 0 | inactive: 0 | inactive: 0 | inactive: 0 | inactive: 0 | inactive: 0 | inactive: 0 | inactive: 0 | inactive: 0
NC1=NCCN1CC(=O)O [Cyclocreatine] (10 µM) | inactive: 0 | inactive: 0 | inactive: 0 | inactive: 0 | inactive: 0 | inactive: 0 | inactive: 0 | inactive: 0 | inactive: 0 | inactive: 0 | inactive: 0 | inactive: 0 | inactive: 0 | inactive: 0 | inactive: 0 | inactive: 0 | inactive: 0 | inactive: 0 | inactive: 0 | inactive: 0
COc1cc(N2CCOCC2)ccc1NC(=O)c1csc(-c2cccnc2)n1 [IRAK inhibitor 6] (10 µM) | inactive: 0 | inactive: 0 | inactive: 0 | inactive: 0 | inactive: 0 | inactive: 0 | inactive: 0 | inactive: 0 | inactive: 0 | inactive: 0 | inactive: 0 | inactive: 0 | inactive: 0 | inactive: 0 | inactive: 0 | inactive: 0 | inactive: 0 | inactive: 0 | inactive: 0 | inactive: 0
CC(C)S(=O)(=O)c1ccc2nccc(Nc3ccc4scnc4c3)c2c1 (10 µM) | inactive: 0 | inactive: 0 | inactive: 0 | inactive: 0 | inactive: 0 | inactive: 0 | inactive: 0 | inactive: 0 | inactive: 0 | inactive: 0 | inactive: 0 | inactive: 0 | inactive: 0 | inactive: 0 | inactive: 0 | inactive: 0 | inactive: 0 | inactive: 0 | inactive: 0 | inactive: 0
O=C(Nc1cccc(C(F)(F)F)c1)c1cccc2cc(Oc3cc(CO)ncn3)ccc12 (10 µM) | inactive: 0 | inactive: 0 | inactive: 0 | inactive: 0 | inactive: 0 | inactive: 0 | inactive: 0 | inactive: 0 | inactive: 0 | inactive: 0 | inactive: 0 | inactive: 0 | inactive: 0 | inactive: 0 | inactive: 0 | inactive: 0 | inactive: 0 | inactive: 0 | inactive: 0 | inactive: 0
O=C(O)c1cccc(CN2C(=O)/C(=C(\c3ccccc3)c3ccc(Cl)cc3)c3ccccc32)c1 (2.5 µM) | inactive: 0 | inactive: 0 | inactive: 0 | inactive: 0 | inactive: 0 | inactive: 0 | inactive: 0 | inactive: 0 | inactive: 0 | inactive: 0 | inactive: 0 | inactive: 0 | inactive: 0 | inactive: 0 | inactive: 0 | inactive: 0 | inactive: 0 | inactive: 0 | inactive: 0 | inactive: 0
C[C@@H]1CC(=O)c2c(ccc3c2C(=O)c2cccc(O)c2C3=O)C1 [Ochromycinone] (10 µM) | inactive: 0 | inactive: 0 | inactive: 0 | inactive: 0 | inactive: 0 | inactive: 0 | inactive: 0 | inactive: 0 | inactive: 0 | inactive: 0 | inactive: 0 | inactive: 0 | inactive: 0 | inactive: 0 | inactive: 0 | inactive: 0 | inactive: 0 | inactive: 0 | inactive: 0 | inactive: 0
C=CC(=O)N1C(=O)CC(c2ccc(F)cc2)Sc2ccccc21 (stereo not drawn) [GSK-3β inhibitor 3] (10 µM) | inactive: 0 | inactive: 0 | inactive: 0 | inactive: 0 | inactive: 0 | inactive: 0 | inactive: 0 | inactive: 0 | inactive: 0 | inactive: 0 | inactive: 0 | inactive: 0 | inactive: 0 | inactive: 0 | inactive: 0 | inactive: 0 | inactive: 0 | inactive: 0 | inactive: 0 | inactive: 0
C=CC(=O)Nc1cc(-n2c(=O)ccc3cnc4ccc(-c5ccc(NS(C)(=O)=O)cc5)cc4c32)ccc1C (10 µM) | inactive: 0 | inactive: 0 | inactive: 0 | inactive: 0 | inactive: 0 | inactive: 0 | inactive: 0 | inactive: 0 | inactive: 0 | inactive: 0 | inactive: 0 | inactive: 0 | inactive: 0 | inactive: 0 | inactive: 0 | inactive: 0 | inactive: 0 | inactive: 0 | inactive: 0 | inactive: 0
Cc1ncc(NC(=O)NC2c3ccccc3-c3ccccc32)c(-c2ccccc2)n1 (10 µM) | inactive: 0 | inactive: 0 | inactive: 0 | inactive: 0 | inactive: 0 | inactive: 0 | inactive: 0 | inactive: 0 | inactive: 0 | inactive: 0 | inactive: 0 | inactive: 0 | inactive: 0 | inactive: 0 | inactive: 0 | inactive: 0 | inactive: 0 | inactive: 0 | inactive: 0 | inactive: 0
C=CCc1ccc(O)c(-c2ccc(O)c(CC=C)c2)c1 [Honokiol] (10 µM) | inactive: 0 | inactive: 0 | inactive: 0 | inactive: 0 | inactive: 0 | inactive: 0 | inactive: 0 | inactive: 0 | inactive: 0 | inactive: 0 | inactive: 0 | inactive: 0 | inactive: 0 | inactive: 0 | inactive: 0 | inactive: 0 | inactive: 0 | inactive: 0 | inactive: 0 | inactive: 0
COc1ccc2cc3[n+](cc2c1OC)CCc1cc(O)c(O)cc1-3 [Demethyleneberberine] (10 µM) | inactive: 0 | inactive: 0 | inactive: 0 | inactive: 0 | inactive: 0 | inactive: 0 | inactive: 0 | inactive: 0 | inactive: 0 | inactive: 0 | inactive: 0 | inactive: 0 | inactive: 0 | inactive: 0 | inactive: 0 | inactive: 0 | inactive: 0 | inactive: 0 | inactive: 0 | inactive: 0
Cc1cnc(-c2ccc(-c3ccc(NC(=O)Nc4cccc(C(F)(F)F)c4)cc3F)c3c2C(=O)NC3)[nH]1 (10 µM) | inactive: 0 | inactive: 0 | inactive: 0 | inactive: 0 | inactive: 0 | inactive: 0 | inactive: 0 | inactive: 0 | inactive: 0 | inactive: 0 | inactive: 0 | inactive: 0 | inactive: 0 | inactive: 0 | inactive: 0 | inactive: 0 | inactive: 0 | inactive: 0 | inactive: 0 | inactive: 0
Nc1n[nH]c2nc(-c3ccc(NS(=O)(=O)c4cc(Cl)ccc4F)cc3)cnc12 (10 µM) | inactive: 0 | inactive: 0 | inactive: 0 | inactive: 0 | active: 1 | inactive: 0 | inactive: 0 | inactive: 0 | inactive: 0 | inactive: 0 | inactive: 0 | inactive: 0 | inactive: 0 | inactive: 0 | inactive: 0 | inactive: 0 | inactive: 0 | active: 1 | inactive: 0 | inactive: 0

Single records (already shown). Order of values: kinase-Nluc reporter destabilization hit call (BRAF_V600E) | kinase-Nluc reporter destabilization hit call (BTK) | kinase-Nluc reporter destabilization hit call (CAMK2A) | kinase-Nluc reporter destabilization hit call (CAMK2G) | kinase-Nluc reporter destabilization hit call (CDK10) | kinase-Nluc reporter destabilization hit call (CDK2) | kinase-Nluc reporter destabilization hit call (CDK3) | kinase-Nluc reporter destabilization hit call (CDK4) | kinase-Nluc reporter destabilization hit call (CDK5) | kinase-Nluc reporter destabilization hit call (CDK6) | kinase-Nluc reporter destabilization hit call (CDK7) | kinase-Nluc reporter destabilization hit call (CDK9) | kinase-Nluc reporter destabilization hit call (CHEK2) | kinase-Nluc reporter destabilization hit call (CSF1R) | kinase-Nluc reporter destabilization hit call (CSK) | kinase-Nluc reporter destabilization hit call (CSNK1A1) | kinase-Nluc reporter destabilization hit call (CSNK1D) | kinase-Nluc reporter destabilization hit call (DDR1) | kinase-Nluc reporter destabilization hit call (DYRK1B) | kinase-Nluc reporter destabilization hit call (DYRK2)
`NC1=NCCN1CC(=O)O` [Cyclocreatine] (10 µM) as listed: inactive: 0 | inactive: 0 | inactive: 0 | inactive: 0 | inactive: 0 | inactive: 0 | inactive: 0 | inactive: 0 | inactive: 0 | inactive: 0 | inactive: 0 | inactive: 0 | inactive: 0 | inactive: 0 | inactive: 0 | inactive: 0 | inactive: 0 | inactive: 0 | inactive: 0 | inactive: 0
`C[C@@H]1CC(=O)c2c(ccc3c2C(=O)c2cccc(O)c2C3=O)C1` [Ochromycinone] (10 µM) as listed: inactive: 0 | inactive: 0 | inactive: 0 | inactive: 0 | inactive: 0 | inactive: 0 | inactive: 0 | inactive: 0 | inactive: 0 | inactive: 0 | inactive: 0 | inactive: 0 | inactive: 0 | inactive: 0 | inactive: 0 | inactive: 0 | inactive: 0 | inactive: 0 | inactive: 0 | inactive: 0
